According to the supplement of paper PMC4604168 (melanoma cell lines):
The list shows a part of the results. Many values rest on one well or one pass, so single values are uncertain.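 Cells were imaged in 1,536-well plates, and nuclei stained with an antibody against cleaved PARP were counted against all DNA-stained nuclei to give the apoptosis fraction. Screening doses were chosen to leave most cells alive, and resting and induced cleaved-PARP levels differ strongly between cell lines.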

tested on: SkMel5; assay: cleaved PARP positive nuclei fraction relative to DMSO control; melanoma cells; higher = more apoptosis; conditions: library dose: low library concentration; 72 h

Compared with Cn1cc(C2=C(c3cn(C4CCN(Cc5ccccn5)CC4)c4ccccc34)C(=O)NC2=O)c2ccccc21 [Enzastaurin] + COc1ccc(COc2ccc(Cc3cnc(N)nc3N)cc2OC)cc1 [GW2580] (first compound 0.8 µM, partner dose 1 µM), C[As](C)SC[C@H](NC(=O)CC[C@H](N)C(=O)O)C(=O)NCC(=O)O [Darinaparsin] + C=CCn1c(=O)c2cnc(Nc3ccc(N4CCN(C)CC4)cc3)nc2n1-c1cccc(C(C)(C)O)n1 [MK1775] (first compound 0.4 µM, partner dose 0.02 µM) is higher in “cleaved PARP positive nuclei fraction” value: 80.2% for the first, 811% for the second.

First: Cn1cc(C2=C(c3cn(C4CCN(Cc5ccccn5)CC4)c4ccccc34)C(=O)NC2=O)c2ccccc21 [Enzastaurin] + c1cc(-c2cnn3cc(-c4ccc(OCCN5CCCCC5)cc4)cnc23)ccn1 [Dorsomorphin] (first compound 0.8 µM, partner dose 0.4 µM)
Second: N.N.[Cl][Pt][Cl] [cisplatin] + CN(NC(=O)CC(=O)NN(C)C(=S)c1ccccc1)C(=S)c1ccccc1 [STA4783] (first compound 1.6 µM, partner dose 0.006 µM)
The “cleaved PARP positive nuclei fraction” value of the first is lower: 71.8% for the first, 89.5% for the second.

For Cn1cc(C2=C(c3cn(C4CCN(Cc5ccccn5)CC4)c4ccccc34)C(=O)NC2=O)c2ccccc21 [Enzastaurin] + OCCn1cc(-c2cnc3nnn(Cc4ccc5ncccc5c4)c3n2)cn1 [PF04217903] (first compound 0.8 µM, partner dose 1 µM), the “cleaved PARP positive nuclei fraction” value was 71.2%.
